Where two headings read alike, the source gives them in different places.
Legend:
[1] = test system: BaF/3 cells expressing JAK2 wild-type; assay: Proliferation inhibition assay (WST-1); format: cell-based, murine; details: Mus musculus, BaF3, read-out: IC50, proliferation inhibition
Description: (§1) The HEL, SET2 and K562 human cell lines were purchased from the German Collection of Microorganisms and Cell Cultures (DSMZ, Braunschweig, Germany). Murine BaF/3 and BaF/3-EPOR cells expressing JAK2 wild-type (wt) or JAK2V617F were donated by R. Skoda (Basel, Switzerland).

[2] = test system: BaF/3 cells expressing JAK2V617F; assay: Proliferation inhibition assay (WST-1); format: cell-based, murine
Description: as §1

[3] = test system: BaF/3-EPOR cells expressing JAK2V617F; assay: Proliferation inhibition assay (WST-1); format: cell-based, murine; details: read-out: IC50, proliferation inhibition
Description: as §1

[4] = test system: Ba/F3 JAK2 wild-type cells; assay: Clonogenic assay in agar; details: Mus musculus, BaF3, 168 h, read-out: IC50, clonogenic assay
[5] = test system: Ba/F3 JAK2 V617F cells; assay: Clonogenic assay in agar; details: Mus musculus, BaF3, 168 h, read-out: IC50, clonogenic assay
[6] = test system: Ba/F3 epoR JAK2 wild-type cells; assay: Clonogenic assay in agar; details: Mus musculus, BaF3, 168 h, read-out: IC50, clonogenic assay
[7] = test system: Ba/F3 epoR JAK2 V617F cells; assay: Clonogenic assay in agar; details: Mus musculus

CC(C)n1nc(-c2cc3cc(O)ccc3[nH]2)c2c(N)ncnc21 [PP242, 2-(4-amino-1-isopropyl-1H-pyrazolo[3,4-d]pyrimidin-3-yl)-1H-indol-5-ol]
IC50 [1]: 3400 nM
IC50 ([2]; Mus musculus, BaF3, read-out: IC50, proliferation inhibition): 800 nM
IC50 ([2]; read-out: IC50, proliferation inhibition): 1600 nM
IC50 ([3]; Mus musculus): 500 nM
IC50 [3]: 750 nM
IC50 [4]: 100 ± 10 nM
IC50 [5]: 18 ± 7 nM
IC50 [6]: 308 ± 100 nM
IC50 ([7]; BaF3, 168 h, read-out: IC50, clonogenic assay): 47 ± 12 nM
IC50 ([7]; BaF3, read-out: IC50 of the mTOR inhibitor in drug combination with Cmp A): 6.3 nM
